Laboratory results: publication PMC3548779
These are yes or no findings as the source states them, for the method shown. In cells and extracts the contact can be indirect. Some binding calls cover weakened binding; strength is not graded here.

By UniProt entry, the sequences of proteins in these tests, tags left out.
UniProt Q96EB6: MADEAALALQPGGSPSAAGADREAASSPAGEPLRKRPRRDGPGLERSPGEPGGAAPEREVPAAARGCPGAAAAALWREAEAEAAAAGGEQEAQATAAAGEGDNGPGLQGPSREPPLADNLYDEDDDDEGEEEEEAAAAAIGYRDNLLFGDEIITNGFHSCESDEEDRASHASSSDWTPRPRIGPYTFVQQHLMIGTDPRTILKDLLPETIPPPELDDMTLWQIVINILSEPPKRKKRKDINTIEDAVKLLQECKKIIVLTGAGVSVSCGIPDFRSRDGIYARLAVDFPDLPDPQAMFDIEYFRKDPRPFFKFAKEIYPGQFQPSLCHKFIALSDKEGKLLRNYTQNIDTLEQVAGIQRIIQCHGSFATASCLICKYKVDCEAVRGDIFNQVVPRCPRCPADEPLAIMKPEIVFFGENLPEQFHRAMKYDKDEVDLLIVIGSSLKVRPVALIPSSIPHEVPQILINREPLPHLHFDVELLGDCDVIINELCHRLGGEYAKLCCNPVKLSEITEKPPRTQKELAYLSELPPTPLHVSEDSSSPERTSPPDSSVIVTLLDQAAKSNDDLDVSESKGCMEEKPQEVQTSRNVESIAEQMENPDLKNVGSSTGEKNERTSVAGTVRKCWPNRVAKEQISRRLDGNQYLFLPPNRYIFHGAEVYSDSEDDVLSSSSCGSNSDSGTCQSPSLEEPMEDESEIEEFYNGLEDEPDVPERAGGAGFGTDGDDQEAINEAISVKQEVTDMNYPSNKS
UniProt Q00613: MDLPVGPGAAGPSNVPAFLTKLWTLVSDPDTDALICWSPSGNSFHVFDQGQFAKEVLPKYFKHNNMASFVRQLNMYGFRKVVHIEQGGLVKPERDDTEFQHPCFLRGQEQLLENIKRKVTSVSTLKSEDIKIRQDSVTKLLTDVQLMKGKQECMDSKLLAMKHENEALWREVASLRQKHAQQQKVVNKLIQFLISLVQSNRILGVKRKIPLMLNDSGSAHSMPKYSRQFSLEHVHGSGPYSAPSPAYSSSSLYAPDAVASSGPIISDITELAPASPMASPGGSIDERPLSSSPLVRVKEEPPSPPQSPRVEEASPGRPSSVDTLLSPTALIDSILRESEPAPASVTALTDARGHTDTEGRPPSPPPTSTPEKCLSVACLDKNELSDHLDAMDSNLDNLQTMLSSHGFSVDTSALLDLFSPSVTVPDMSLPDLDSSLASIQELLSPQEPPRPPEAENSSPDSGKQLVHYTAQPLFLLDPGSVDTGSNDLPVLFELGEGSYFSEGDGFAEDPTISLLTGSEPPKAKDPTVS

Biological target: SIRT1 (UniProt Q96EB6)
Test: pull-down; GST pull-down; which partner carried GST is not told; no methods, figure or conditions are given

heat shock transcription factor 1 (HSF1) (from UniProt Q00613 1-529)
binding: binds
